These are yes or no findings as the source states them, for the method shown. In cells and extracts the contact can be indirect. Some binding calls cover weakened binding; strength is not graded here. Sequences can lack the tags named with a protein.
B1: Chs3^(1-855 VC), C-terminally truncated Chs3 fused to the C-terminal half of Venus (domain or fragment, UniProt P29465 1-855)
chain: MTGLNGDDPDDYYLNLNQDEESLLRSRHSVGSGAPHRQGSLVRPERSRLNNPDNPHFYYAQKTQEQMNHLDVLPSSTGVNPNATRRSGSLRSKGSVRSKFSGRETDSYLLQDMNTTDKKASVKISDEGVAEDEFDKDGDVDNFEESSTQPINKSIKPLRKETNDTLSFWQMYCYFITFWAPAPILAFCGMPKKERQMAWREKVALISVILYIGAIVAFLTFGFTKTVCSSSKLRLKNNEVSTEFVVINGKAYELDTSSRSGIQDVEVDSDTLYGPWSDAGKDASFLFQNVNGNCHNLITPKSNSSIPHDDDNNLAWYFPCKLKNQDGSSKPNFTVENYAGWNCHTSKEDRDAFYGLKSKADVYFTWDGIKNSSRNLIVYNGDVLDLDLLDWLEKDDVDYPVVFDDLKTSNLQGYDLSLVLSNGHERKIARCLSEIIKVGEVDSKTVGCIASDVVLYVSLVFILSVVIIKFIIACYFRWTVARKQGAYIVDNKTMDKHTNDIEDWSNNIQTKAPLKEVDPHLRPKKYSKKSLGHKRASTFDLLKKHSSKMFQFNESVIDLDTSMSSSLQSSGSYRGMTTMTTQNAWKLSNENKAVHSRNPSTLLPTSSMFWNKATSSPVPGSSLIQSLDSTIIHPDIVQQPPLDFMPYGFPLIHTICFVTCYSEDEEGLRTTLDSLSTTDYPNSHKLLMVVCDGLIKGSGNDKTTPEIALGMMDDFVTPPDEVKPYSYVAVASGSKRHNMAKIYAGFYKYDDSTIPPENQQRVPIITIVKCGTPAEQGAAKPGNRGKRDSQIILMSFLEKITFDERMTQLEFQLLKNIWQITGLMADFYETVLMVDADTKVFPDALTHMVAEMVKD
B2: Chs3 (chitin synthase 3) from Saccharomyces cerevisiae, full length, fused at its C-terminus to a half of Venus for BiFC (enzyme, UniProt P29465 1-1165)
chain: MTGLNGDDPDDYYLNLNQDEESLLRSRHSVGSGAPHRQGSLVRPERSRLNNPDNPHFYYAQKTQEQMNHLDVLPSSTGVNPNATRRSGSLRSKGSVRSKFSGRETDSYLLQDMNTTDKKASVKISDEGVAEDEFDKDGDVDNFEESSTQPINKSIKPLRKETNDTLSFWQMYCYFITFWAPAPILAFCGMPKKERQMAWREKVALISVILYIGAIVAFLTFGFTKTVCSSSKLRLKNNEVSTEFVVINGKAYELDTSSRSGIQDVEVDSDTLYGPWSDAGKDASFLFQNVNGNCHNLITPKSNSSIPHDDDNNLAWYFPCKLKNQDGSSKPNFTVENYAGWNCHTSKEDRDAFYGLKSKADVYFTWDGIKNSSRNLIVYNGDVLDLDLLDWLEKDDVDYPVVFDDLKTSNLQGYDLSLVLSNGHERKIARCLSEIIKVGEVDSKTVGCIASDVVLYVSLVFILSVVIIKFIIACYFRWTVARKQGAYIVDNKTMDKHTNDIEDWSNNIQTKAPLKEVDPHLRPKKYSKKSLGHKRASTFDLLKKHSSKMFQFNESVIDLDTSMSSSLQSSGSYRGMTTMTTQNAWKLSNENKAVHSRNPSTLLPTSSMFWNKATSSPVPGSSLIQSLDSTIIHPDIVQQPPLDFMPYGFPLIHTICFVTCYSEDEEGLRTTLDSLSTTDYPNSHKLLMVVCDGLIKGSGNDKTTPEIALGMMDDFVTPPDEVKPYSYVAVASGSKRHNMAKIYAGFYKYDDSTIPPENQQRVPIITIVKCGTPAEQGAAKPGNRGKRDSQIILMSFLEKITFDERMTQLEFQLLKNIWQITGLMADFYETVLMVDADTKVFPDALTHMVAEMVKDPLIMGLCGETKIANKAQSWVTAIQVFEYYISHHQAKAFESVFGSVTCLPGCFSMYRIKSPKGSDGYWVPVLANPDIVERYSDNVTNTLHKKNLLLLGEDRFLSSLMLKTFPKRKQVFVPKAACKTIAPDKFKVLLSQRRRWINSTVHNLFELVLIRDLCGTFCFSMQFVIGIELIGTMVLPLAICFTIYVIIFAIVSKPTPVITLVLLAIILGLPGLIVVITATRWSYLWWMCVYICALPIWNFVLPSYAYWKFDDFSWGDTRTIAGGNKKAQDENEGEFDHSKIKMRTWREFEREDILNRKEESDSFVA
B3: Chs3^(210-855 VC), N- and C-terminally truncated Chs3 fused to the C-terminal half of Venus (domain or fragment, UniProt P29465 210-855)
chain: LYIGAIVAFLTFGFTKTVCSSSKLRLKNNEVSTEFVVINGKAYELDTSSRSGIQDVEVDSDTLYGPWSDAGKDASFLFQNVNGNCHNLITPKSNSSIPHDDDNNLAWYFPCKLKNQDGSSKPNFTVENYAGWNCHTSKEDRDAFYGLKSKADVYFTWDGIKNSSRNLIVYNGDVLDLDLLDWLEKDDVDYPVVFDDLKTSNLQGYDLSLVLSNGHERKIARCLSEIIKVGEVDSKTVGCIASDVVLYVSLVFILSVVIIKFIIACYFRWTVARKQGAYIVDNKTMDKHTNDIEDWSNNIQTKAPLKEVDPHLRPKKYSKKSLGHKRASTFDLLKKHSSKMFQFNESVIDLDTSMSSSLQSSGSYRGMTTMTTQNAWKLSNENKAVHSRNPSTLLPTSSMFWNKATSSPVPGSSLIQSLDSTIIHPDIVQQPPLDFMPYGFPLIHTICFVTCYSEDEEGLRTTLDSLSTTDYPNSHKLLMVVCDGLIKGSGNDKTTPEIALGMMDDFVTPPDEVKPYSYVAVASGSKRHNMAKIYAGFYKYDDSTIPPENQQRVPIITIVKCGTPAEQGAAKPGNRGKRDSQIILMSFLEKITFDERMTQLEFQLLKNIWQITGLMADFYETVLMVDADTKVFPDALTHMVAEMVKD
B4: Chs3^(210-1165 VC), Chs3 lacking only the N-terminus, fused to the C-terminal half of Venus (domain or fragment, UniProt P29465 210-1165)
chain: LYIGAIVAFLTFGFTKTVCSSSKLRLKNNEVSTEFVVINGKAYELDTSSRSGIQDVEVDSDTLYGPWSDAGKDASFLFQNVNGNCHNLITPKSNSSIPHDDDNNLAWYFPCKLKNQDGSSKPNFTVENYAGWNCHTSKEDRDAFYGLKSKADVYFTWDGIKNSSRNLIVYNGDVLDLDLLDWLEKDDVDYPVVFDDLKTSNLQGYDLSLVLSNGHERKIARCLSEIIKVGEVDSKTVGCIASDVVLYVSLVFILSVVIIKFIIACYFRWTVARKQGAYIVDNKTMDKHTNDIEDWSNNIQTKAPLKEVDPHLRPKKYSKKSLGHKRASTFDLLKKHSSKMFQFNESVIDLDTSMSSSLQSSGSYRGMTTMTTQNAWKLSNENKAVHSRNPSTLLPTSSMFWNKATSSPVPGSSLIQSLDSTIIHPDIVQQPPLDFMPYGFPLIHTICFVTCYSEDEEGLRTTLDSLSTTDYPNSHKLLMVVCDGLIKGSGNDKTTPEIALGMMDDFVTPPDEVKPYSYVAVASGSKRHNMAKIYAGFYKYDDSTIPPENQQRVPIITIVKCGTPAEQGAAKPGNRGKRDSQIILMSFLEKITFDERMTQLEFQLLKNIWQITGLMADFYETVLMVDADTKVFPDALTHMVAEMVKDPLIMGLCGETKIANKAQSWVTAIQVFEYYISHHQAKAFESVFGSVTCLPGCFSMYRIKSPKGSDGYWVPVLANPDIVERYSDNVTNTLHKKNLLLLGEDRFLSSLMLKTFPKRKQVFVPKAACKTIAPDKFKVLLSQRRRWINSTVHNLFELVLIRDLCGTFCFSMQFVIGIELIGTMVLPLAICFTIYVIIFAIVSKPTPVITLVLLAIILGLPGLIVVITATRWSYLWWMCVYICALPIWNFVLPSYAYWKFDDFSWGDTRTIAGGNKKAQDENEGEFDHSKIKMRTWREFEREDILNRKEESDSFVA

Target: T1, Chs3 (chitin synthase 3) from Saccharomyces cerevisiae, full length, fused at its C-terminus to a half of Venus for BiFC (S. cerevisiae) (UniProt P29465)
T1 sequence: B2 chain
Assay: split reporter; BiFC with the halves of Venus in living S. cerevisiae cells; Chs3^VN genomically tagged, Chs3^VC versions from pRS415 under the MET25 promoter; cells synchronised with alpha-factor, fluorescence microscopy; wildtype background and chs4, chs5, chs6, chs7, pfa4, bni4 deletion strains

binding, binds:
B1
B2
B3
B4

Source: publication PMC5412288
